Experiment [1] has as its target T1, sorcin-GFP fusion (pEGFP-sorcin, full-length human sorcin) (human) (UniProt P30626).
T1 sequence: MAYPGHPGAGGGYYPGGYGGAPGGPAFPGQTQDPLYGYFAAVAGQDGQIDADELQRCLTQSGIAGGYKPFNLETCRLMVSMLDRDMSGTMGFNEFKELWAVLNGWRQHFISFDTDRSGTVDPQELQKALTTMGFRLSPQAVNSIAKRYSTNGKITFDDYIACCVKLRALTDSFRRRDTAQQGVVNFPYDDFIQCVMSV
The experiment is described as follows: co-IP; HEK293T co-transfected with GFP-tagged full-length or truncated sorcin and full-length flag-STAT3; IP with anti-GFP monoclonal antibody, blot with anti-flag.

The chains behind the UniProt entries cited, without tags or fusion partners. Where a name states a change or a piece, a line headed by the entry shows the natural chain unless it says otherwise. A line that says so, or that is headed by a name, gives the form on record, which may keep a tag or linker. Residues count along the entry.
UniProt P40763: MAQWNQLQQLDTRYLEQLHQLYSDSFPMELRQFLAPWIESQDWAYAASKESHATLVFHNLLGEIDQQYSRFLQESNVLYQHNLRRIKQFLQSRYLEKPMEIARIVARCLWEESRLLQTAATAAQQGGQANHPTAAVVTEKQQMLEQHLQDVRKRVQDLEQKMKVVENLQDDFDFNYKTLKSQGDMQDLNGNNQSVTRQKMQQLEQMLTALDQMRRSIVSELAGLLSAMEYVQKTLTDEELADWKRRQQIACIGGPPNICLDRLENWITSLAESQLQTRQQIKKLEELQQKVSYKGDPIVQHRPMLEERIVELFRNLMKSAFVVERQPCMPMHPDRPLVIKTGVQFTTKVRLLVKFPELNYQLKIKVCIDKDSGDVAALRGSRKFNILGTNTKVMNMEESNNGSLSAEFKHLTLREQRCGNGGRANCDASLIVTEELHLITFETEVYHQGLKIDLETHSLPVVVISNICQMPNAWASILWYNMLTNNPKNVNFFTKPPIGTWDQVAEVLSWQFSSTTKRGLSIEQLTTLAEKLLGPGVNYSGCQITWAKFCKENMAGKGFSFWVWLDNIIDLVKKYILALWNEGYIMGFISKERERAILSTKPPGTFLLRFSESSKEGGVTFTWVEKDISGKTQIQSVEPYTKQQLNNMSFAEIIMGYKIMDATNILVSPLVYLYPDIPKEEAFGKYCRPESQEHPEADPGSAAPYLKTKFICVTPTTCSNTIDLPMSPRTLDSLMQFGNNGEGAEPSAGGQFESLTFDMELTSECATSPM
STAT3 deletion mutant with residues 581–770 fused to the Flag tag: residues 581-770 of P40763
UniProt P42227: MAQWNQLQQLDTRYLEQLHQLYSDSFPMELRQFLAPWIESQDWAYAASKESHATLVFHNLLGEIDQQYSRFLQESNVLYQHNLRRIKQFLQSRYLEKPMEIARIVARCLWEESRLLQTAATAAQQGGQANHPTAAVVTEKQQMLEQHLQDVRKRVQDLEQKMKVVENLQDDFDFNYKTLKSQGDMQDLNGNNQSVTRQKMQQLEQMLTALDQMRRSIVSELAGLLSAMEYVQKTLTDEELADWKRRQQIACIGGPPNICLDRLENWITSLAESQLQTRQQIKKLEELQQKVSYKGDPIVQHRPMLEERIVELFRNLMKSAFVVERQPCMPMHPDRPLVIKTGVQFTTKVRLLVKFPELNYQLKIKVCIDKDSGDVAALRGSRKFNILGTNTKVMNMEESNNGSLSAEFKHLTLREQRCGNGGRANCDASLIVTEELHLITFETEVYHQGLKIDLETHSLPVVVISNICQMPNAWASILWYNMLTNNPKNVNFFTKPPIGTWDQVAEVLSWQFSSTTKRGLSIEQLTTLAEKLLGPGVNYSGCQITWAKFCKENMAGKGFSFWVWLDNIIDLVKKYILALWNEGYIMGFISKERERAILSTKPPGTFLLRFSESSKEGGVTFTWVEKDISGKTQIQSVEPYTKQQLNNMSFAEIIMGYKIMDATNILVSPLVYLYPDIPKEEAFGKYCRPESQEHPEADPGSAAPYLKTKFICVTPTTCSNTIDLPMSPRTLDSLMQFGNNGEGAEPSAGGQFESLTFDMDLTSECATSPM

Experiment [2] concerns the target STAT3 deletion mutant with residues 581–770 fused to the Flag tag (human) (UniProt P40763). In words: co-IP; HEK293T co-transfected with flag-STAT3 (full length or truncated) and pEGFP-sorcin; lysis in 1% Triton-100, 20 mM Tris-Cl, 5 mM EDTA, 137 mM NaCl; IP with anti-flag antibody, blot with anti-GFP.
The target of experiment [3] is flag-STAT3 (pRK5-flag-STAT3, full-length human STAT3) (human) (UniProt P40763). Described as above.
Experiment [4] has the same target. In words: co-IP; HEK293T transfected with pRK5-flag-STAT3; IP with anti-FLAG antibody, blot of endogenous sorcin with anti-sorcin antibody.
The target of experiment [5] is endogenous STAT3 of mouse hepatocytes (mouse (endogenous in hepatocytes)) (UniProt P42227). The experiment is described as follows: co-IP; extracts of hepatocytes from mice with or without ConA stimulation; IP with STAT3 antibody or control IgG, blot with anti-sorcin; both proteins endogenous.
Experiment [6] deals with endogenous STAT3 of HepG2 cells (human (endogenous in HepG2)) (UniProt P40763). The experiment is described as follows: cross-linking + co-IP; HepG2 cells treated with 1 mmol/L DSS at room temperature for 30 min, lysed in Nonidet-40 buffer; IP with anti-STAT3 antibody, blot with anti-sorcin; both proteins endogenous.

Substitutions are numbered along the chain they refer to. No constants are given. Whether binding was seen depends on the method and setting. Binding seen in cells or lysates may run through a third protein. Some results given as binding are weak or reduced against the parent protein; the word gives no strength. For part of these data: Where a sequence is shown, tags or fusion partners need not be part of it.

For “flag-STAT3 (pRK5-flag-STAT3, full-length human STAT3) (from UniProt P40763-1 1-770)”, the binding entry in experiment [1] was “binds”.

B1: sorcin-GFP fusion (pEGFP-sorcin, full-length human sorcin) (protein, UniProt P30626-1 1-198)
chain: T1 sequence
As to B1, the binding entry in experiment [2] and in experiment [3] was “binds” each time.

B2: endogenous sorcin of HEK293T cells (protein, UniProt P30626 1-198)
chain: T1 sequence
Take B2: the binding entry in experiment [4] is on record as “binds”.

B3: endogenous sorcin of mouse hepatocytes (protein, UniProt Q6P069 1-198)
chain: T1 sequence with T114S, A140T, I144V, N151S, T178S, A179G, P187S, S197T
Regarding B3, in experiment [5], the binding result is listed as “binds”.

B4: endogenous sorcin of HepG2 cells (protein, UniProt P30626 1-198)
chain: T1 sequence
Consider B4, for which the binding entry in experiment [6] is reported as “binds”.

The values above are taken from paper PMC5489593.
